PubChem BioAssay AID504774, Drosophila RNAi Screening Center, 2011

- Purpose: 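Knock-downs that shift viability of MMS-exposed cells relative to untreated ones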 (primary screen)
- System: Drosophila Kc167 cells
- Reagent: long dsRNA against Drosophila genes, about 0.25 µg dsRNA per well
- Duration: about 6 days: 3 days knock-down, then 3 days with or without MMS
- Treatment: methyl methanesulphonate 0.004% (w/v) for 3 days after knock-down
- Measured: 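ATP-dependent luminescence as a measure of live cells in MMS-exposed wells, quantile normalised within each plate, with replicate values also given as a mean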
- Reading the numbers: mean viability with MMS and viability with MMS: higher = more surviving cells after MMS
The deposit covers about 23,000 reagents; shown is an unselected part of those with a known target gene and a result. 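Values are quantile-normalised luminescence on an arbitrary scale; higher means more cells surviving MMS.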 The numbers tell different reagents against one gene apart. Further read-outs or replicates are left out here. No sequences are given here.

no.	target gene	reagent no.	mean viability with MMS	viability with MMS, replicate 1
1	CG45002	1	3.56e6	4.05e6
2	CG8834	1	3.55e6	3.94e6
3	Ilk (Integrin linked kinase)	1	1.84e6	4.00e6
4	Cpr97Ea (Cuticular protein 97Ea)	1	3.70e6	4.23e6
5	lectin-33A	1	3.65e6	4.04e6
6	lectin-33A	2	3.28e6	3.82e6
7	Vmat (Vesicular monoamine transporter)	1	3.82e6	4.31e6
8	Vmat (Vesicular monoamine transporter)	2	3.49e6	4.00e6
9	Vmat (Vesicular monoamine transporter)	3	3.47e6	3.98e6
10	Miox (Myo-inositol oxygenase)	1	3.46e6	3.87e6
11	Mst33A	1	3.50e6	4.04e6
12	ZnT77C (Zinc transporter 77C)	1	3.57e6	4.02e6
13	ZnT77C (Zinc transporter 77C)	2	3.61e6	4.04e6
14	CG31788	1	3.42e6	3.84e6
15	CG9391	1	3.50e6	4.03e6
16	grau (grauzone)	1	3.10e6	3.67e6
17	CG6912	1	3.67e6	4.53e6
18	tsl (torso-like)	1	3.62e6	4.20e6
19	AnxB10 (Annexin B10)	1	3.56e6	4.00e6
20	CG16888	1	3.56e6	4.12e6
21	CG3065	1	3.32e6	3.90e6
22	CG9498	1	3.49e6	4.01e6
23	CG30015	1	3.55e6	4.01e6
24	CG30015	2	3.57e6	4.01e6
25	CG30015	3	3.46e6	3.87e6
26	CG2256	1	3.59e6	4.21e6
27	Or59c (Odorant receptor 59c)	1	3.55e6	3.84e6
28	CG18223	1	3.34e6	3.80e6
29	Mst84Dd (Male-specific RNA 84Dd)	1	3.47e6	3.81e6
30	Dlc90F (Dynein light chain 90F)	1	3.51e6	4.06e6
31	wfs1 (wolfram syndrome 1)	1	3.71e6	4.29e6
32	acs (arcus)	1	3.72e6	4.03e6
33	CG1722	1	3.48e6	3.93e6
34	CG30158	1	3.59e6	4.06e6
35	CG30158	2	3.58e6	4.09e6
36	CG30158	3	3.56e6	4.12e6
37	CG30158	4	3.61e6	4.15e6
38	CG14416	1	3.48e6	3.99e6
39	CkIalpha (Casein kinase Ialpha)	1	3.40e6	3.83e6
40	CkIalpha (Casein kinase Ialpha)	2	3.50e6	4.00e6
41	CkIalpha (Casein kinase Ialpha)	3	3.59e6	4.04e6
42	CG30283	1	3.64e6	4.22e6
43	CG10347	1	3.69e6	4.23e6
44	IntS4 (Integrator 4)	1	3.45e6	3.52e6
45	CG4686	1	3.68e6	4.22e6
46	Mical (Molecule interacting with CasL)	1	3.39e6	3.89e6
47	Mical (Molecule interacting with CasL)	2	3.46e6	3.89e6
48	Mical (Molecule interacting with CasL)	3	3.43e6	3.95e6
49	Mical (Molecule interacting with CasL)	4	3.49e6	4.01e6

3 consecutive reagents already listed:
no.	target gene	reagent no.	mean viability with MMS	viability with MMS, replicate 1
7	Vmat (Vesicular monoamine transporter)	1	3.82e6	4.31e6
8	Vmat (Vesicular monoamine transporter)	2	3.49e6	4.00e6
9	Vmat (Vesicular monoamine transporter)	3	3.47e6	3.98e6
